Values from PubChem BioAssay AID504784 (Drosophila RNAi Screening Center, 2011)
In all, the deposit lists about 17,000 reagents; shown is a random part of those that have a named target and a result. 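Each column is one replicate's B-score; the combined score over replicates was not deposited, so single values may mislead.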 The numbers tell different reagents against one gene apart.

Aim: 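Fly genes whose silencing alters how much lipid cells keep in droplets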 (primary screen)
Cells: Drosophila Kc167 embryonic cells
Knock-down reagent: long dsRNA against Drosophila genes, about 250 ng dsRNA per well
Timing: 4 days
Conditions: cells fed 400 µM oleic acid bound to BSA
Measurement: 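Cells imaged and segmented; ratio of lipid droplet area to nuclear area, log-transformed, then normalised as a B-score over the screen; higher means more stored lipid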
Scale: droplet/nuclear area B-score: higher = more stored lipid (overstorage)

Gene,reagent,"droplet/nuclear area B-score, replicate 1","droplet/nuclear area B-score, replicate 2","droplet/nuclear area B-score, replicate 3"
RapGAP1,1,-1.2,0.906,1.12
RapGAP1,2,-0.288,-0.292,
RapGAP1,3,0.0133,0.0881,
alka,1,0.759,-2.11,
PK2-R1,1,-0.229,0.0239,
ADD1,1,2.4,-1.25,
CG14632 (retired record),1,-0.291,1.84,-0.758
Sgs3,1,-0.74,0.277,
CG15628,1,0.979,-0.593,
CG15628,2,0.623,-0.21,
sba,1,-0.491,-1.07,
sba,2,,-0.0188,1.05
IntS9,1,0,0.599,0.602
CG17994,1,0.297,-1.56,
GIIIspla2,1,-1.02,3.7,0.94
barc,1,-2.3,-0.662,0.737
pHCl-1,1,0.401,0.226,
pHCl-1,2,-0.446,-1.23,
santa-maria,1,-0.055,0.0153,
santa-maria,2,-0.958,0.101,
insv,1,-0.0302,-2.85,
CG5122,1,0.156,-0.0427,
hdly,1,0.279,0.811,
Cpr64Aa,1,0.26,1.31,
Sbds,1,0.00326,1.98,
yin,1,0.633,-1.02,
yin,2,-0.319,0.0388,
CG5611,1,1.36,-0.729,
Grl36a,1,1.32,1.43,
Ggamma30A,1,-0.0125,-0.668,
Ggamma30A,2,1.63,0.925,
CG32447,1,-1.52,0.746,0.892
CG32447,2,0.244,-1.52,
CG32054,1,1.99,1.38,
csul,1,-0.1,0.731,
CG31517,1,0.385,0.782,
BORCS5,1,0.137,0.672,0.235
Rim,1,-0.49,-0.144,
Rim,2,-0.623,-1.88,
Rim,3,-0.494,-0.207,
Rim,4,-0.0992,0.984,
Rim,5,0.316,0.111,
Gs1l,1,0.587,-0.128,
pirk,1,0.875,0.537,
beta4GalNAcTB,1,-0.375,-0.592,
XRCC1,1,-1.69,1.26,-0.83
CG5946,1,-1.64,-0.652,
CG13248,1,0.207,0.453,
jp,1,1.35,0.0311,
jp,2,2.95,0.366,
Ugt49C1,1,0.0172,0.641,
AstA,1,0.111,0.195,
CG31323,1,0.202,-0.864,
CG13305,1,0.153,3.06,
DJ-1alpha,1,-0.0994,-0.683,
nopo,1,3.21,-2.1,
